The whole screen tested about 390,000 compounds, of which about 910 (0.23%) were called active. The inconclusive results got no clear call from the source; some entries with a clear call stand among them for comparison. Calls come from the whole dose curve; as a rule, active = well fitted inhibition curve with a large enough effect; inconclusive = small, poorly fitted or top-dose-only effect; inactive = no such curve, though single readings can be large or run the other way. Potencies beside an inconclusive call are fits to weak or partial responses and may not hold up.
What follows are compounds tested against Ubiquitin carboxyl-terminal hydrolase 1 (Homo sapiens) (UniProt O94782) (assay: Inhibitors of USP1/UAF1: Primary Screen). Conditions: recombinant USP1/UAF1, Ub-Rhodamine cleavage fluorescence; activity change, negative = inhibition: at 57.1 µM (top of the series).
Method in brief: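 1 nM enzyme complex + cpd, 15 min RT; start with Ub-Rho 150nM final; kinetic fluorescence ex 480/em 540, 6 reads q60 s. Buffer 50mM HEPES pH 7.8, 0.5mM EDTA, 0.1 mg/ml BSA, 1mM TCEP, 0.01% Tween-20.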
% is set by controls: 0 for no effect and ±100 for the full control effect; potency is the fitted concentration of half-maximal effect.
Note: nearly all actives have a fitted effect of over 60% in size.

Amino acid sequences for entries named in this document (tags omitted). A change or cut given only in a name is not applied to a line headed by its entry.
UniProt O94782: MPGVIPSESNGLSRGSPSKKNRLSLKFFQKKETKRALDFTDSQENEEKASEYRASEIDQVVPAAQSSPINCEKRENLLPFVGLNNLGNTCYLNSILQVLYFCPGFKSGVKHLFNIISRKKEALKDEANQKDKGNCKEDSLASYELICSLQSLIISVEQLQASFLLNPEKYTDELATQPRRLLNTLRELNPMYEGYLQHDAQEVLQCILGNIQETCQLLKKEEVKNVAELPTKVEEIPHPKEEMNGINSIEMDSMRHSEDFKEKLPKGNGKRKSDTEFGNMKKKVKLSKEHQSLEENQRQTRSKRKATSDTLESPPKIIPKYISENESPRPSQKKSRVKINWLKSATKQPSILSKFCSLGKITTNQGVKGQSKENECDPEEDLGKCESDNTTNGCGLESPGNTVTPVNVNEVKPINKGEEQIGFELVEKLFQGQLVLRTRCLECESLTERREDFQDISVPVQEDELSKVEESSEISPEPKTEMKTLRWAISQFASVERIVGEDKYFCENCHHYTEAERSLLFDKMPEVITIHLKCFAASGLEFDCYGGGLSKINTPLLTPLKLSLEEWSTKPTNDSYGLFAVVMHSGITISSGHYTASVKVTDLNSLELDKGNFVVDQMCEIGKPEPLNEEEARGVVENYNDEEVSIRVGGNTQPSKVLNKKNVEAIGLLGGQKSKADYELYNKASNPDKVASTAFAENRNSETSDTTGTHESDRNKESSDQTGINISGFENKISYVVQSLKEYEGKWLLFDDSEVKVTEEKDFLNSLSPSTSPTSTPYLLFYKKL

SMILES | Potency | activity change, negative = inhibition
C[C@H](CO)N1C[C@H](C)[C@H](CN(C)C(=O)CCC(F)(F)F)OCc2cnnn2CCCC1=O | inconclusive: 0.251 µM [inhibitor, full curve, poor fit] | 
Cc1ccc(OCc2cc(C(=O)N3CCN(C)C[C@@H]3c3ccccc3)no2)cc1C | inactive | 
Cn1c(-n2cccc2)c(-c2c(-c3ccccc3)[nH]c3c2c(=O)n(C)c(=O)n3C)c(=O)n(C)c1=O | inconclusive: 5.62 µM [inhibitor, single point] | 
S=C(NCCc1ccccc1)NC1CCC(NC(=S)NCCc2ccccc2)CC1 (stereo not given) | inactive | 
CC1CC(C)(C)NC(=S)N1CCC(=O)N1CCc2ccccc2C1 (stereo not given) | inconclusive: 39.8 µM [inhibitor, single point] | 
Cc1ccc(-c2nnc(C3CCN(S(=O)(=O)c4ccc(C)c(C)c4)CC3)o2)cc1 | inconclusive: 35.5 µM [inhibitor, single point] | 
Cc1ccc(Cl)cc1Nc1nc(-c2sc(NC(=O)c3ccco3)nc2C)cs1 | inactive | 
Cc1nc2ccccn2c(=O)c1NC(=O)c1ccc(C(F)(F)F)cc1 | inconclusive: 1.26 µM [inhibitor, full curve, poor fit] | 
O=[N+]([O-])c1ccc(C[n+]2cc(-c3ccccc3)n3c2CCCCC3)cc1 | inconclusive: 5.01 µM [inhibitor, partial curve] | 
O=C(Cc1cccc(NC(=O)C2CCCN(C(=O)C3CCCC3)C2)c1)Nc1ccc(C(=O)N2CCOCC2)cc1 (stereo not given) | inconclusive: 5.01 µM [inhibitor, partial curve] | 
CCCCN=c1scc(-c2ccc3c(c2)NC(=O)CO3)n1N=C1CCCC1 | inactive | 
O=C(CCC(=O)c1ccc[nH]1)c1ccc(Cl)cc1 | inactive | 
Nc1nc2ccc(O)cc2s1 | inactive | 
CCOC(=O)c1ccccc1NC(=O)c1sc2ncn(Cc3cccc(F)c3)c(=O)c2c1C | inconclusive: 35.5 µM [inhibitor, partial curve] | 
COc1ccc(/C=C(\C#N)c2nc(-c3cc4c(ccc5ccccc54)oc3=O)cs2)cc1O | inconclusive: 31.6 µM [inhibitor, partial curve] | 
COc1ccc2c(C)cc(N3CCN(c4ccc(F)cc4)CC3)nc2c1 | inconclusive: 31.6 µM [inhibitor, partial curve] | 
COC(=O)N[C@@H]1C[C@H]2[C@@H]3CC[C@H]4C[C@@H](OC)CC[C@]4(C)[C@H]3CC[C@]12C | inconclusive: 14.1 µM [inhibitor, partial curve] | 
c1ccc(CN2CCN(c3ncnc4nc[nH]c34)CC2)cc1 | inconclusive: 39.8 µM [inhibitor, single point] | 
O=C(Nc1ccc2c(c1)OCCO2)c1ccc(NC(=O)C2CCCO2)cc1 (stereo not given) | inactive | 
CCS(=O)(=O)N1CCN(C(=O)c2cc(OC)cc(OC)c2)CC1 | inconclusive: 31.6 µM [inhibitor, single point] | 

SMILES | Potency | activity change, negative = inhibition
CN1C(=O)/C(=C/C=C2\SCCN2C)N(C)C1=S | inconclusive: 12.6 µM [inhibitor, partial curve, poor fit] | 
CC(=O)c1ccc(N2C(=O)N(Cc3ccccc3C#N)c3ccccc3S2(=O)=O)cc1 | inactive | 
O=c1oc2cc(O)ccc2c2oc3cc(O)ccc3c12 | inconclusive: 79.4 µM [inhibitor, partial curve, poor fit] | 
CCc1ccc(OCc2nc(-c3ccc(OC)c(OC)c3)no2)c(Br)c1 |  | inconclusive: -16.1% [inhibitor]
CN(CC(=O)Nc1cccc(F)c1)C(=O)CC1CCCC1 | inconclusive: 31.6 µM [inhibitor, single point] | 
Cc1ccc(-c2nc(CN3CCCCC3)cc(CN3CCCCC3)c2O)cc1 | inconclusive: 44.7 µM [inhibitor, partial curve, poor fit] | 
O=C(Nc1ccc(F)cc1F)C1CCN(S(=O)(=O)c2ccc3[nH]c(=O)ccc3c2)CC1 | inconclusive: 100 µM [inhibitor, partial curve, poor fit] | 
CNCCC(Oc1ccc(C(F)(F)F)cc1)c1ccccc1 (stereo not given) | inactive | 
Cc1nn(C)c2c1c(C(F)(F)F)cc(=O)n2CC(=O)N1CCCCC1C (stereo not given) | inconclusive: 39.8 µM [inhibitor, partial curve] | 
CCCOc1ccc(-c2nc(N3CCCCC3)c3ccccc3n2)cc1 | inconclusive: 3.55 µM [inhibitor, full curve] | 
CC(C)(c1ccccc1)c1ccc(OCC2CO2)cc1 (stereo not given) | inconclusive: 50.1 µM [inhibitor, single point] | 
Cc1ccc(NC(=O)CN2C(=O)N/C(=C/c3cccn3-c3ccc(C(=O)O)cc3)C2=O)cc1 | inconclusive: 39.8 µM [inhibitor, single point] | 
O=C(Nc1cccc(Cl)c1)c1cnn2cccnc12 | inconclusive: 39.8 µM [inhibitor, partial curve, poor fit] | 
Cc1oc2ccc(O)c(CN3CCCCC3)c2c1C(=O)Nc1cccc(C(F)(F)F)c1 | inconclusive: 14.1 µM [inhibitor, partial curve, poor fit] | 
COc1cc(-c2noc(-c3ccc(NCc4ccco4)c([N+](=O)[O-])c3)n2)cc(OC)c1OC | inactive | 
COc1ccccc1NC(C)C(=O)N/N=C/c1cccs1 (stereo not given) | inconclusive: 50.1 µM [inhibitor, partial curve, poor fit] | 
Cc1ccc(-n2ncc(C(=O)Nc3ccc4c(c3)OCO4)c2C2CCN(C(=O)OC(C)(C)C)CC2)c(C)c1 | inconclusive: 2.82 µM [inhibitor, full curve, poor fit] | 
O=S1(=O)CCO[C@H]2Cc3ccccc3[C@H]2N1Cc1ccccc1F | inconclusive: 0.794 µM [inhibitor, full curve] | 
Cc1ccc(-c2csc3ncn(Cc4ccc(C(=O)O)cc4)c(=O)c23)cc1C | inconclusive: 39.8 µM [inhibitor, partial curve] | 
O=C(CCC1N=C2c3ccccc3N=C(SCc3ccccc3F)N2C1=O)NCCc1ccccc1 (stereo not given) | inconclusive: 4.47 µM [inhibitor, full curve, poor fit] | 

Record cards (already shown):
COc1ccccc1NC(C)C(=O)N/N=C/c1cccs1 (stereo not given) is entered as Potency: inconclusive: 50.1 µM [inhibitor, partial curve, poor fit]
O=C(CCC1N=C2c3ccccc3N=C(SCc3ccccc3F)N2C1=O)NCCc1ccccc1 (stereo not given) is entered as Potency: inconclusive: 4.47 µM [inhibitor, full curve, poor fit]

— PubChem BioAssay AID743255 (National Center for Advancing Translational Sciences (NCATS), 2014)
